This is an account of results in PMC5596601.

By UniProt entry, the sequences of proteins in these tests, tags left out. Residues count along the entry.
UniProt O14763, residues 56-440: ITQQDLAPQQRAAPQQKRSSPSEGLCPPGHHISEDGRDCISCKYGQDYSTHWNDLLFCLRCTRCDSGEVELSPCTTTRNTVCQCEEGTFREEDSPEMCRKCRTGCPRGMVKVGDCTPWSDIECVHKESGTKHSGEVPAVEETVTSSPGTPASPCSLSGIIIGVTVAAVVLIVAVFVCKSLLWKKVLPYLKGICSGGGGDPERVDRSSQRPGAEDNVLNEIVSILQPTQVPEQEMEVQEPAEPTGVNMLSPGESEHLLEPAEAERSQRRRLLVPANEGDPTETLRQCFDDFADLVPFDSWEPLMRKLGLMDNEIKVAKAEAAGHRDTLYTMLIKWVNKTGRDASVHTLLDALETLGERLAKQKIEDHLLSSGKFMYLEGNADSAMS
UniProt O00220, residues 24-468: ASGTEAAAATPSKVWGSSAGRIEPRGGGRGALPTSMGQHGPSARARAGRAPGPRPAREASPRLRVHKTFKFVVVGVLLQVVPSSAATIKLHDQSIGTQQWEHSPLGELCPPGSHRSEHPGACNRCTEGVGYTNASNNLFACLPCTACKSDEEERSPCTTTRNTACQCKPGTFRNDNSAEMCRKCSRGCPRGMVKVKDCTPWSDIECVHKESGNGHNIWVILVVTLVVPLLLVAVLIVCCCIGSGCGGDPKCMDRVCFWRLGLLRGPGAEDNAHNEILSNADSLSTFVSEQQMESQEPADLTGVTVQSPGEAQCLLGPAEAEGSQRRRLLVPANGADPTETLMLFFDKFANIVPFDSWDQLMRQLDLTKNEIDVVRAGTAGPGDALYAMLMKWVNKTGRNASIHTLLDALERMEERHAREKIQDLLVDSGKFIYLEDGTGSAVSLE

Assay [1] addresses Death Receptor 5 (human (endogenous in BJELR)) (UniProt O14763). The assay can be described thus: co-IP; whole-cell lysates (1% Triton X-100, 150 mM NaCl, pH 7.4) of BJELR cells, naive or treated with 1 ug/ml TRAIL for 30 min; antibodies to DR5, DR4, DcR2 or caspase-8 on protein G magnetic beads, overnight at 4 °C; Western blot. (In general: A western blot detects proteins with antibodies after separation by electrophoresis.)

The target of assay [2] is Death Receptor 4 (human (endogenous in BJELR)) (UniProt O00220). The description is as above.
Assay [3] deals with Death Receptor 5 (human (endogenous in BJELR)) (UniProt O14763). The assay can be described thus: co-IP; purified plasma membrane fraction of BJELR cells (also control and DcR2 knockout cells), naive or treated with 1 ug/ml TRAIL for 30 min; antibodies to DR5, RIPK1, TRAF2 or FADD; Western blot.
The target in assay [4] is RIPK1 (receptor-interacting serine/threonine-protein kinase 1) (human (endogenous in BJELR)) (UniProt Q13546). Described as above.
Assay [5] has as its target T1, TRAF2 (TNF receptor-associated factor 2) (human (endogenous in BJELR)) (UniProt Q12933).
T1 sequence: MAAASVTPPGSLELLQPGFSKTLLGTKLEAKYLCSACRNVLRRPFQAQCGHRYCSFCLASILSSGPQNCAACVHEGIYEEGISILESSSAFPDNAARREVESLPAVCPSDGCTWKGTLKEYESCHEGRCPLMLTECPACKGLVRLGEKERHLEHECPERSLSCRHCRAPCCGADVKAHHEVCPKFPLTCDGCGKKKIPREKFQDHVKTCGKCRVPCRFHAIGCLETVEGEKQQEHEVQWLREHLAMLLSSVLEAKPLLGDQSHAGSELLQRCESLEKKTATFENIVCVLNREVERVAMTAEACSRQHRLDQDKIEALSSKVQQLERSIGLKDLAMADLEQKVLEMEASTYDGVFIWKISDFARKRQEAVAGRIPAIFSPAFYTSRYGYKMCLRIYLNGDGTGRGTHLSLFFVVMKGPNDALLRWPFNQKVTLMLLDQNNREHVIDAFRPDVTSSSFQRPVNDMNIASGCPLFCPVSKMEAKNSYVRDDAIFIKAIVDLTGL
The description is as above.

In assay [6] the target is Death Receptor 4 (human (endogenous in BJELR)) (UniProt O00220). The assay can be described thus: co-IP; DR5 knockout BJELR cells, naive or treated with TRAIL for 30 min; DR4 IP from plasma membrane fractions (Figure 7c), RIPK1 IP and TRAF2 IP (Figure 7d, fraction not named in the legend); Western blot.
Assay [7] addresses T2, TRAF2 (TNF receptor-associated factor 2) (human (endogenous in BJELR)), Q12933.
T2 chain: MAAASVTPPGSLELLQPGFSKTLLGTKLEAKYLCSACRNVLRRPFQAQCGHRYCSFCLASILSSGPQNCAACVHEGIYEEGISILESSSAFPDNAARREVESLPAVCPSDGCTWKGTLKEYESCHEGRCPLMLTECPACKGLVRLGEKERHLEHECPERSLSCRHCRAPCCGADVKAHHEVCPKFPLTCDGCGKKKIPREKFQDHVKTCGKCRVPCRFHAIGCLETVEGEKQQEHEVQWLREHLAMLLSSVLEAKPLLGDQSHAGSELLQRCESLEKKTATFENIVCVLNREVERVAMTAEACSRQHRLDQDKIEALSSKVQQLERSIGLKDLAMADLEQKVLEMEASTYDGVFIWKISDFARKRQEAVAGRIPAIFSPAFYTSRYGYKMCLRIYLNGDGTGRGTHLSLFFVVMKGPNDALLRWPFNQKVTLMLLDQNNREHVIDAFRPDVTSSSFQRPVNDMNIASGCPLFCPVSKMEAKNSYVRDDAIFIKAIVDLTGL
The assay can be described thus: co-IP; purified plasma membrane fraction of BJELR cells (also control and DcR2 knockout cells), naive or treated with 1 ug/ml TRAIL for 30 min; antibodies to DR5, RIPK1, TRAF2 or FADD; Western blot. To be noted: remark: other sources report otherwise.

In assay [8] the target is Death Receptor 5 (human (endogenous in BJELR)), O14763. The assay is described as above. As to conditions: remark: other sources report otherwise.
Assay [9] has the same target. The assay can be described thus: co-IP; whole-cell lysates (1% Triton X-100, 150 mM NaCl, pH 7.4) of BJELR cells, naive or treated with 1 ug/ml TRAIL for 30 min; antibodies to DR5, DR4, DcR2 or caspase-8 on protein G magnetic beads, overnight at 4 °C; Western blot. To be noted: remark: other sources report otherwise.
For assay [10], the target named is T3, RIPK1 (receptor-interacting serine/threonine-protein kinase 1) (human (endogenous in BJELR)), Q13546.
T3 chain: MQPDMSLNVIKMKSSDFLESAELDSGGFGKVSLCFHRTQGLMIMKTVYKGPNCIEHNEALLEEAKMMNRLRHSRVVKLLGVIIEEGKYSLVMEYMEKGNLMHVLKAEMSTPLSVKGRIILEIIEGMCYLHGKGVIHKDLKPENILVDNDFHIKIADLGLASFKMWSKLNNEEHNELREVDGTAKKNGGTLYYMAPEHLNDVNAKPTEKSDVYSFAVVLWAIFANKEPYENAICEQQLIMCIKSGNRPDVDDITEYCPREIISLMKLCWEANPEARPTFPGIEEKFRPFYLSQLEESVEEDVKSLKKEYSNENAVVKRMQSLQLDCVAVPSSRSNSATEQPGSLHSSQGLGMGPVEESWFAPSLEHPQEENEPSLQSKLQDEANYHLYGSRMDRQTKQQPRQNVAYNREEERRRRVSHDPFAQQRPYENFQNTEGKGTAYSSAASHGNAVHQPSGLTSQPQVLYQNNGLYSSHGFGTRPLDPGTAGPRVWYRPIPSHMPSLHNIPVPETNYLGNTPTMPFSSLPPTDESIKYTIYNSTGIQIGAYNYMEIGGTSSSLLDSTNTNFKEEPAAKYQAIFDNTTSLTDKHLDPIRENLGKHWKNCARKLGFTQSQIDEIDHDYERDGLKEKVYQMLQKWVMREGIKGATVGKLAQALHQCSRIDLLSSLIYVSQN
The assay can be described thus: co-IP; purified plasma membrane fraction of BJELR cells (also control and DcR2 knockout cells), naive or treated with 1 ug/ml TRAIL for 30 min; antibodies to DR5, RIPK1, TRAF2 or FADD; Western blot. As to conditions: remark: other sources report otherwise.

Assay [11] concerns the target T4, caspase-8 (human (endogenous in BJELR)), Q14790.
T4 chain: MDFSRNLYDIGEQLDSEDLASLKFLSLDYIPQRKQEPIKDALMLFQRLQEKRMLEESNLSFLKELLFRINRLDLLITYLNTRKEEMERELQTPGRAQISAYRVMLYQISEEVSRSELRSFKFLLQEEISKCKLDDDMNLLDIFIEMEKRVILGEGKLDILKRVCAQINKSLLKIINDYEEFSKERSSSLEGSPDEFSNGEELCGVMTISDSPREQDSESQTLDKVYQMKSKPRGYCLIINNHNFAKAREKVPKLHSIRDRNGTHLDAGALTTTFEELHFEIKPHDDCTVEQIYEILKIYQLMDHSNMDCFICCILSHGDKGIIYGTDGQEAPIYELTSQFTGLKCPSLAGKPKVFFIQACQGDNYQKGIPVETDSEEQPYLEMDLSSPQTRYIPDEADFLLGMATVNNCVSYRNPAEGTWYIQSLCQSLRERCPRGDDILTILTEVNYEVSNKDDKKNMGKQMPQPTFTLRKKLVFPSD
The assay can be described thus: co-IP; whole-cell lysates (1% Triton X-100, 150 mM NaCl, pH 7.4) of BJELR cells, naive or treated with 1 ug/ml TRAIL for 30 min; antibodies to DR5, DR4, DcR2 or caspase-8 on protein G magnetic beads, overnight at 4 °C; Western blot. To be noted: remark: other sources report otherwise.

No constants are given. Whether binding was seen depends on the method and setting. In cells and extracts the contact can be indirect. Some entries that bind do so weakly or less than the wild type.

B1: Decoy Receptor 2 (receptor, UniProt Q9UBN6 56-386)
chain: ATIPRQDEVPQQTVAPQQQRRSLKEEECPAGSHRSEYTGACNPCTEGVDYTIASNNLPSCLLCTVCKSGQTNKSSCTTTRDTVCQCEKGSFQDKNSPEMCRTCRTGCPRGMVKVSNCTPRSDIKCKNESAASSTGKTPAAEETVTTILGMLASPYHYLIIIVVLVIILAVVVVGFSCRKKFISYLKGICSGGGGGPERVHRVLFRRRSCPSRVPGAEDNARNETLSNRYLQPTQVSEQEIQGQELAELTGVTVELPEEPQRLLEQAEAEGCQRRRLLVPVNDADSADISTLLDASATLEEGHAKETIQDQLVGSEKLFYEEDEAGSATSCL
On to B1, for which the binding result in [1] is on record as “binds”; in [2], “binds”; in assay [3], “binds”; in assay [4], “binds”; in assay [5], “binds”; in assay [6], “binds weakly”.

B2: FADD (Fas-associated protein with death domain), Q13158 1-208 (protein)
chain: MDPFLVLLHSVSSSLSSSELTELKFLCLGRVGKRKLERVQSGLDLFSMLLEQNDLEPGHTELLRELLASLRRHDLLRRVDDFEAGAAAGAAPGEEDLCAAFNVICDNVGKDWRRLARQLKVSDTKIDSIEDRYPRNLTERVRESLRIWKNTEKENATVAHLVGALRSCQMNLVADLVQEVQQARDLQNRSGAMSPMSWNSDASTSEAS
Regarding B2, the binding result in assay [7] is listed as “binds”.

B3: caspase-8, Q14790 1-479 (enzyme)
chain: MDFSRNLYDIGEQLDSEDLASLKFLSLDYIPQRKQEPIKDALMLFQRLQEKRMLEESNLSFLKELLFRINRLDLLITYLNTRKEEMERELQTPGRAQISAYRVMLYQISEEVSRSELRSFKFLLQEEISKCKLDDDMNLLDIFIEMEKRVILGEGKLDILKRVCAQINKSLLKIINDYEEFSKERSSSLEGSPDEFSNGEELCGVMTISDSPREQDSESQTLDKVYQMKSKPRGYCLIINNHNFAKAREKVPKLHSIRDRNGTHLDAGALTTTFEELHFEIKPHDDCTVEQIYEILKIYQLMDHSNMDCFICCILSHGDKGIIYGTDGQEAPIYELTSQFTGLKCPSLAGKPKVFFIQACQGDNYQKGIPVETDSEEQPYLEMDLSSPQTRYIPDEADFLLGMATVNNCVSYRNPAEGTWYIQSLCQSLRERCPRGDDILTILTEVNYEVSNKDDKKNMGKQMPQPTFTLRKKLVFPSD
Consider B3, for which the binding result in assay [8], in assay [7] and in [9] was “binds” in each case.

B4: TRAF2 (TNF receptor-associated factor 2), Q12933 1-501 (protein)
chain: MAAASVTPPGSLELLQPGFSKTLLGTKLEAKYLCSACRNVLRRPFQAQCGHRYCSFCLASILSSGPQNCAACVHEGIYEEGISILESSSAFPDNAARREVESLPAVCPSDGCTWKGTLKEYESCHEGRCPLMLTECPACKGLVRLGEKERHLEHECPERSLSCRHCRAPCCGADVKAHHEVCPKFPLTCDGCGKKKIPREKFQDHVKTCGKCRVPCRFHAIGCLETVEGEKQQEHEVQWLREHLAMLLSSVLEAKPLLGDQSHAGSELLQRCESLEKKTATFENIVCVLNREVERVAMTAEACSRQHRLDQDKIEALSSKVQQLERSIGLKDLAMADLEQKVLEMEASTYDGVFIWKISDFARKRQEAVAGRIPAIFSPAFYTSRYGYKMCLRIYLNGDGTGRGTHLSLFFVVMKGPNDALLRWPFNQKVTLMLLDQNNREHVIDAFRPDVTSSSFQRPVNDMNIASGCPLFCPVSKMEAKNSYVRDDAIFIKAIVDLTGL
On to B4, for which the binding result in assay [10] and in assay [11] was “binds” each time.
